Small differences around the control level are noise.
Key:
Test in all cases: normalised response (% of control), CellTox Green; higher = less cell death (100 = DMSO, 0 = benzethonium chloride kill control)
Settings in all cases: incubation time: 72 h
HCC1937 [1] = test system: HCC1937
Method: (§1)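 DSRT, 72 h incubation, CellTox Green / CellTiter-Glo readout. Signal is normalised to DMSO and benzethonium chloride controls. Value is the normalised response at the lowest tested concentration.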

MCF-10A [2] = test system: MCF-10A
Method: as §1

BT-474 [3] = test system: BT-474
Method: as §1

HCC1599 [4] = test system: HCC1599
Method: as §1

MDA-MB-436 [5] = test system: MDA-MB-436
Method: as §1

MFM-223 [6] = test system: MFM-223
Method: as §1

CAL-51 [7] = test system: CAL-51
Method: as §1

DU-4475 [8] = test system: DU-4475
Method: as §1

MDA-MB-453 [9] = test system: MDA-MB-453
Method: as §1

BT-549 [10] = test system: BT-549
Method: as §1

CAL-120 [11] = test system: CAL-120
Method: as §1

CAL-85-1 [12] = test system: CAL-85-1
Method: as §1

CAL-148 [13] = test system: CAL-148
Method: as §1

MDA-MB-468 [14] = test system: MDA-MB-468
Method: as §1

Hs578T [15] = test system: Hs578T
Method: as §1

MDA-MB-231 [16] = test system: MDA-MB-231
Method: as §1

HCC1937 [17] = test system: HCC1937; remark: listed apart in the source
Method: (§2)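 DSRT, 72 h incubation, CellTox Green / CellTiter-Glo readout. Signal is normalised to DMSO and benzethonium chloride controls. Value is the normalised response at dose 2.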

MCF-10A [18] = test system: MCF-10A; remark: listed apart in the source
Method: as §2

BT-474 [19] = test system: BT-474; remark: listed apart in the source
Method: as §2

HCC1599 [20] = test system: HCC1599; remark: listed apart in the source
Method: as §2

MDA-MB-436 [21] = test system: MDA-MB-436; remark: listed apart in the source
Method: as §2

MFM-223 [22] = test system: MFM-223; remark: listed apart in the source
Method: as §2

CAL-51 [23] = test system: CAL-51; remark: listed apart in the source
Method: as §2

DU-4475 [24] = test system: DU-4475; remark: listed apart in the source
Method: as §2

MDA-MB-453 [25] = test system: MDA-MB-453; remark: listed apart in the source
Method: as §2

BT-549 [26] = test system: BT-549; remark: listed apart in the source
Method: as §2

HCC1143 = test system: HCC1143
Method: as §2

CAL-120 [27] = test system: CAL-120; remark: listed apart in the source
Method: as §2

CAL-85-1 [28] = test system: CAL-85-1; remark: listed apart in the source
Method: as §2

CAL-148 [29] = test system: CAL-148; remark: listed apart in the source
Method: as §2

MDA-MB-468 [30] = test system: MDA-MB-468; remark: listed apart in the source
Method: as §2

MDA-MB-231 [31] = test system: MDA-MB-231; remark: listed apart in the source
Method: as §2

HDQ-P1 = test system: HDQ-P1
Method: as §2

Hs578T [32] = test system: Hs578T; remark: listed apart in the source
Method: as §2

Compound | normalised response (HCC1937 [1]) | normalised response (MCF-10A [2]) | normalised response (BT-474 [3]) | normalised response (HCC1599 [4]) | normalised response (MDA-MB-436 [5]) | normalised response (MFM-223 [6]) | normalised response (CAL-51 [7]) | normalised response (DU-4475 [8]) | normalised response (MDA-MB-453 [9]) | normalised response (BT-549 [10]) | normalised response (CAL-120 [11]) | normalised response (CAL-85-1 [12]) | normalised response (CAL-148 [13]) | normalised response (MDA-MB-468 [14]) | normalised response (Hs578T [15]) | normalised response (MDA-MB-231 [16]) | normalised response (HCC1937 [17]) | normalised response (MCF-10A [18]) | normalised response (BT-474 [19]) | normalised response (HCC1599 [20]) | normalised response (MDA-MB-436 [21]) | normalised response (MFM-223 [22]) | normalised response (CAL-51 [23]) | normalised response (DU-4475 [24]) | normalised response (MDA-MB-453 [25]) | normalised response (BT-549 [26]) | normalised response (HCC1143) | normalised response (CAL-120 [27]) | normalised response (CAL-85-1 [28]) | normalised response (CAL-148 [29]) | normalised response (MDA-MB-468 [30]) | normalised response (MDA-MB-231 [31]) | normalised response (HDQ-P1) | normalised response (Hs578T [32])
Cc1ccc(C(=O)N(CCCN)[C@@H](c2oc3cc(Cl)ccc3c(=O)c2Cc2ccccc2)C(C)C)cc1 (0.01 nM) | 96.4% | 106% | 99.1% | 104% | 88.7% | 90.4% | 81.2% | 101% | 94.1% | 90.6% | 100% | 90.3% | 95.9% | 64.5% | 96.6% | 103% |  |  |  |  |  |  |  |  |  |  |  |  |  |  |  |  |  | 
CC1=C2C[C@H]3[C@@H](CC=C4C[C@@H](O)CC[C@@]43C)[C@@H]2CC[C@]12O[C@@H]1C[C@H](C)CN[C@H]1[C@H]2C [Cyclopamine] (10 nM) |  |  |  |  |  |  |  |  |  |  |  |  |  |  |  |  | 73.7% | 110% | 100% | 77.3% | 99.5% | 95.8% | 102% | 113% | 103% | 93.4% | 112% | 103% | 96.9% | 106% |  | 100% | 77.2% | 
CC(C)C(=O)Nc1ccc([N+](=O)[O-])c(C(F)(F)F)c1 [Flutamide] (1 nM) | 112% | 102% | 98.1% | 97.3% | 82.1% | 101% | 110% | 99.3% | 106% | 101% | 96.5% | 105% | 98.5% | 97.4% | 105% | 105% |  |  |  |  |  |  |  |  |  |  |  |  |  |  |  |  |  | 
Oc1ccc2c(c1)CC[C@H](c1ccccc1)[C@@H]2c1ccc(OCCN2CCCC2)cc1 [Lasofoxifene] (1 nM) |  |  |  |  |  |  |  |  |  |  |  |  |  |  |  |  | 102% | 120% | 105% | 126% | 117% | 103% | 112% | 118% | 110% | 98.1% | 114% | 103% | 103% | 109% | 71.8% | 113% | 124% | 
Nc1nc(OCc2cc(Br)cs2)c2[nH]cnc2n1 [Lomeguatrib] (10 nM) |  |  |  |  |  |  |  |  |  |  |  |  |  |  |  |  |  | 95.8% | 82.3% | 95.3% | 97.8% | 101% | 89.1% | 95.8% | 96.5% | 104% |  | 99.4% | 101% | 99.8% | 81% | 103% | 106% | 87%
CC(C)(C)c1cc(NC(=O)Nc2ccc(-c3cn4c(n3)sc3cc(OCCN5CCOCC5)ccc34)cc2)no1 [Quizartinib] (1 nM) |  |  |  |  |  |  |  |  |  |  |  |  |  |  |  |  |  | 114% | 101% | 104% | 104% | 101% | 104% | 110% | 107% | 105% | 120% | 103% | 100% | 104% | 89.3% | 101% |  | 120%
